Drugs:
ENMD-2076: Cc1cc(Nc2cc(N3CCN(C)CC3)nc(/C=C/c3ccccc3)n2)n[nH]1 at 0.2 µM
L-779450: Oc1cc(-c2nc(-c3ccccc3)[nH]c2-c2ccncc2)ccc1Cl at 1 µM
U73122: COc1ccc2c(c1)CCC1C2CCC2(C)C(NCCCCCCN3C(=O)C=CC3=O)CCC12 (centres unmarked) at 2 µM
sunitinib: CCN(CC)CCNC(=O)c1c(C)[nH]c(/C=C2\C(=O)Nc3ccc(F)cc32)c1C at 2 µM
BI-D1870: CC(C)CCN1c2nc(Nc3cc(F)c(O)c(F)c3)ncc2N(C)C(=O)C1C (centres unmarked) at 1 µM
midostaurin: CO[C@@H]1[C@H](N(C)C(=O)c2ccccc2)C[C@H]2O[C@]1(C)n1c3ccccc3c3c4c(c5c6ccccc6n2c5c31)C(=O)NC4 at 0.4 µM
GW0742: Cc1cc(SCc2sc(-c3ccc(C(F)(F)F)c(F)c3)nc2C)ccc1OCC(=O)O at 10 µM

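The test systems are human melanoma cell lines, treated with two drugs together for 72 h and then stained and imaged. Values are the share of nuclei positive for cleaved PARP as a percentage of the same share in the DMSO control: 100 is the control level, higher means more apoptosis. Every drug was used at one fixed concentration, the higher of two screened. No replicate spread is given; individual values may be noisy. Basal and induced levels differ widely between cell lines.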
An unselected part of the screen is shown.

| Drugs | SK-MEL-2 |
|---|---|
| L-779450 + sunitinib | 1340 |
| sunitinib + GW0742 | 103 |
| U73122 + BI-D1870 | 199 |
| BI-D1870 + GW0742 | 130 |
| GW0742 + U73122 | 222 |
| midostaurin + ENMD-2076 | 117 |
| sunitinib + U73122 | 70.1 |
| sunitinib + BI-D1870 | 64.6 |
| L-779450 + BI-D1870 | 786 |
| GW0742 + L-779450 | 841 |
| midostaurin + sunitinib | 209 |
| midostaurin + GW0742 | 291 |
| GW0742 + ENMD-2076 | 70.7 |
| L-779450 + U73122 | 332 |
| ENMD-2076 + BI-D1870 | 75.4 |
| L-779450 + midostaurin | 635 |
| midostaurin + BI-D1870 | 106 |
| midostaurin + U73122 | 267 |

The last 2 entries again:

Drugs	SK-MEL-2
midostaurin + BI-D1870	106
midostaurin + U73122	267

Source: doi:10.1371/journal.pone.0140310, primary screening data, rounded.